From patent US4550101A, “Iron complexes of hydroxy pyridones useful for treating iron deficiency anemia” (priority 1982, dated 1985)
For at least one compound, name, drawing or mass did not settle the structure.

Test system: transferrin
Test: 59Fe in cat blood bound to transferrin
Type: in vivo
Details: after 1 hour

CCn1cccc([O-])c1=O.CCn1cccc([O-])c1=O.CCn1cccc([O-])c1=O.[Fe+3] [iron complex of 1-ethyl-3-hydroxypyrid-2-one]
59Fe present in the blood bound to transferrin: Over 95%
